In US20240368549A1, “ENHANCEMENT OF HEMATOPOIETIC STEM CELL AND HEMATOPOIETIC PROGENITOR CELL EXPANSION WITH AGENTS THAT ACTIVATE TAM RECEPTORS” (CANADIAN BLOOD SERVICES, priority 2021, published 2024):

System: AXL and GAS6 genes
Assay: AXL and GAS6 gene expression by qPCR in expanded HSPCs
Assay type: cell-based, human

Row | Structure (SMILES) | expression of AXL and GAS6 (vs STFL control, 14 days) | effect of TET inhibition on expression of AXL and GAS6 (30 μM, day-10 to day-14)
1 | O.O=C1O[C@H]([C@@H](O)CO)C(O)=C1OP(=O)([O-])[O-].[Mg+2] [AA2P, L-ascorbic acid 2-phosphate magnesium salt hydrate] | increased expression | –
2 | Nc1nc(=O)n(-c2cccc(-c3ccccc3)c2)cc1Cl [Bobcat339] | – | reduced the expression
